The list shows a part of the results.
How the values were obtained:
Test in all cases: log2 fold change, soluble protein after heating vs DMSO (PISA); higher = thermal stabilisation; K562 cells, 10 uM, 30 min; active = over 0.2 and 3.5 SD of the protein, either way, in both replicates (recomputed)
erlotinib = compound: C#Cc1cccc(Nc2ncnc3cc(OCCOC)c(OCCOC)cc23)c1 [erlotinib]
Summary of the method: (§1)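 Quantification of soluble protein used TMTpro 16plex LC-MS/MS, with channel sums equalised. Samples were the supernatant after 21,000xg for 90 min of pooled aliquots from K562 cells (2×10^6 cells/mL) treated with 10 μM compound for 30 min, heated for 3 min over 48°C-58°C, and extracted in PBS with 0.5% NP-40 at 4°C. Values, from duplicates, describe thermal stability against control samples on a log2 fold-change scale.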

Sequences of proteins named here, by UniProt entry; tags and fusion partners are left off. A change or cut given only in a name is not applied to a line headed by its entry.
UniProt Q9UI32: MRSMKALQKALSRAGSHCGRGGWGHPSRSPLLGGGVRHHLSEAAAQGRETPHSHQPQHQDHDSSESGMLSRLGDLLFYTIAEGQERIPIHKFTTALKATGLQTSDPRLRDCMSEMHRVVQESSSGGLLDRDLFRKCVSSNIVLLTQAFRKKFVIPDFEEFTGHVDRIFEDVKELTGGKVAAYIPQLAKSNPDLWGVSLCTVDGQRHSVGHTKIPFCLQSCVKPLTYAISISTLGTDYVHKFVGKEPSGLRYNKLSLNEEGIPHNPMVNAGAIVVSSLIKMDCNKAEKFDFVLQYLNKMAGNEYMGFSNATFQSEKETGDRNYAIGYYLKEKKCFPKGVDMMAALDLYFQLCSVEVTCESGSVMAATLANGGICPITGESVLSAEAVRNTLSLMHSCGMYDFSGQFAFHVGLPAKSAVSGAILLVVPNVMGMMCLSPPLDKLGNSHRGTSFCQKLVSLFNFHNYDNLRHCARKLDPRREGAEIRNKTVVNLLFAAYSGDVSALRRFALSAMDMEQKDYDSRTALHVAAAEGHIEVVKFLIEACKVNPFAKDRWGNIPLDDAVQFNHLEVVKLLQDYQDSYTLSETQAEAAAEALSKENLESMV
UniProt Q13227: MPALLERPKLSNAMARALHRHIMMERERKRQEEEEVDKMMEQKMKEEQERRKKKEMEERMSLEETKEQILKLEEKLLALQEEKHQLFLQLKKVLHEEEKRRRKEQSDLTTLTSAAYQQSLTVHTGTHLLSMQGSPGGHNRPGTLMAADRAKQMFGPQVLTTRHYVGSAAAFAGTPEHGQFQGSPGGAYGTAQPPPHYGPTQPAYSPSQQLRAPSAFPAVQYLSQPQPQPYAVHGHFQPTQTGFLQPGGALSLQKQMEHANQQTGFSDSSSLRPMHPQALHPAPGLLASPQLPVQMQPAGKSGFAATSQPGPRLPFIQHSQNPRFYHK
UniProt Q68CQ7: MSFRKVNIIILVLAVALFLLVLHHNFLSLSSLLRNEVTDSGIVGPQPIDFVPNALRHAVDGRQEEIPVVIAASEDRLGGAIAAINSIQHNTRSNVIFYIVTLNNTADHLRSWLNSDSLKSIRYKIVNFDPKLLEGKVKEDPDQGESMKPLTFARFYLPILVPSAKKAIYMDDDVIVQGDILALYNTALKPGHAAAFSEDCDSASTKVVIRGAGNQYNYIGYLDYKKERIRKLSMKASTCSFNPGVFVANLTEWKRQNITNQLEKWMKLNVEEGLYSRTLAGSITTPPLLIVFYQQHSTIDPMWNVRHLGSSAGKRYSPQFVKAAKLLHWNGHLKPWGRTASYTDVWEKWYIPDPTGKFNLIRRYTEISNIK
UniProt Q9BRR8: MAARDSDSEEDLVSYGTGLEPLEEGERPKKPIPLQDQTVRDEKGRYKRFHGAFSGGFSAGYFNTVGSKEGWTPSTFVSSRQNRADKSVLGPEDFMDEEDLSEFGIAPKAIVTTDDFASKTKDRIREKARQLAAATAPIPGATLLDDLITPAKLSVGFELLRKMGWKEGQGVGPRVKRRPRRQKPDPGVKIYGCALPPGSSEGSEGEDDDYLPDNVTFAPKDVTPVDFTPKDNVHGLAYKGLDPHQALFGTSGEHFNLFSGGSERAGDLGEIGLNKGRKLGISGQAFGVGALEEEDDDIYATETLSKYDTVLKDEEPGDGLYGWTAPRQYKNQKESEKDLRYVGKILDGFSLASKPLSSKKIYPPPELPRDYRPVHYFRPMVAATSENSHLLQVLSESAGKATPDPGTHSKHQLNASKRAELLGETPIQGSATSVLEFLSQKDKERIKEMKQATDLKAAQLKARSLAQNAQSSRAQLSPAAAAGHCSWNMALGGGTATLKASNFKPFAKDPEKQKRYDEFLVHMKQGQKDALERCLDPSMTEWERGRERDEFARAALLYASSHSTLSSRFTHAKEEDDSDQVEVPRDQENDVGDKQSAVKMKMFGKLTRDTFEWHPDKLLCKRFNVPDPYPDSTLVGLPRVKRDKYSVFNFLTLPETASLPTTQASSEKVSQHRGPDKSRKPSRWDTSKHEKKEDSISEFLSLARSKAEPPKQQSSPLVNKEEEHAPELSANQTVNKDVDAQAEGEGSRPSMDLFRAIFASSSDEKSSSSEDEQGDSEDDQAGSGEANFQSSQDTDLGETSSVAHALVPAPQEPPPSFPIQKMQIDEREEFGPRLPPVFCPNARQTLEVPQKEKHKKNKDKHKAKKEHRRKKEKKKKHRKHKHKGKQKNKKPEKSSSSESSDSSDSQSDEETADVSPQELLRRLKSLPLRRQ
UniProt Q6ZS86: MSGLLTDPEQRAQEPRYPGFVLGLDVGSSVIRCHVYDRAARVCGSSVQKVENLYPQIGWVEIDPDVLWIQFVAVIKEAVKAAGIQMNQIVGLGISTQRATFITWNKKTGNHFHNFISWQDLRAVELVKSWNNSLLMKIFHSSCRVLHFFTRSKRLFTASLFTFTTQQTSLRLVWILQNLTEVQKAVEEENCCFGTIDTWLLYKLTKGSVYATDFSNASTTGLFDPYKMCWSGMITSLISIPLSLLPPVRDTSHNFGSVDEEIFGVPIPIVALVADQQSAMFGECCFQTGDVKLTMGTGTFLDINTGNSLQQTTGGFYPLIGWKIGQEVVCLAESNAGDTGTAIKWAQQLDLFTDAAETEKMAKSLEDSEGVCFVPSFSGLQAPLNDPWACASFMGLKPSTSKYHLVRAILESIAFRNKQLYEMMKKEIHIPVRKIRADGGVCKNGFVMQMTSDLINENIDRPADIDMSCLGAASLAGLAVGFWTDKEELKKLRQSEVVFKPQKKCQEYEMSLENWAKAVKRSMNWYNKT
UniProt Q8TD30: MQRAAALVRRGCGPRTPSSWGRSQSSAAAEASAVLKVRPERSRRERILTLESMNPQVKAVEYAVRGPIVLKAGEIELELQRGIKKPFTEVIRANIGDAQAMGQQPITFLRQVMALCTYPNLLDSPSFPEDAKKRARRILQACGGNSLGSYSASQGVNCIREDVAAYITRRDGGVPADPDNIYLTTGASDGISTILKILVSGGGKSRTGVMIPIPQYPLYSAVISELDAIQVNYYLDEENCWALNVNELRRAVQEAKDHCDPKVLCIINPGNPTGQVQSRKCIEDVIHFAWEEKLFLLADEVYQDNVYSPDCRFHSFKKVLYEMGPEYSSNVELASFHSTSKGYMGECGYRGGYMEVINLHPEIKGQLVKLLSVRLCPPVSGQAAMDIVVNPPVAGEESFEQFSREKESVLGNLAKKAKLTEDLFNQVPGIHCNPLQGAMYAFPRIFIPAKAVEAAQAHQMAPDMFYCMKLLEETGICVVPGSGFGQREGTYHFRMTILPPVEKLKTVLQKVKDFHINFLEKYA
UniProt Q9BQQ3: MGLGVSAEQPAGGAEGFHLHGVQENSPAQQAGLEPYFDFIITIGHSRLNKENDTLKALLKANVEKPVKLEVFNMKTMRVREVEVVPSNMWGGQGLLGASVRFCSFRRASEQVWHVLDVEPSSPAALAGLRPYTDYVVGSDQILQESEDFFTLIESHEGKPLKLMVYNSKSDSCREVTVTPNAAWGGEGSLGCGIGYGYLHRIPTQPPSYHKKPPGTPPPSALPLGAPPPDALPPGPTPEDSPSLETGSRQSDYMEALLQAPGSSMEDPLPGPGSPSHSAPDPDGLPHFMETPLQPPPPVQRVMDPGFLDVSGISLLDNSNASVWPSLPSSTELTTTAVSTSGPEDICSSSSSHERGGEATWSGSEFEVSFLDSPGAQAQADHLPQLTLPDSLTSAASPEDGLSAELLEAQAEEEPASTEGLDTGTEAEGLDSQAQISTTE
UniProt Q9HCN6: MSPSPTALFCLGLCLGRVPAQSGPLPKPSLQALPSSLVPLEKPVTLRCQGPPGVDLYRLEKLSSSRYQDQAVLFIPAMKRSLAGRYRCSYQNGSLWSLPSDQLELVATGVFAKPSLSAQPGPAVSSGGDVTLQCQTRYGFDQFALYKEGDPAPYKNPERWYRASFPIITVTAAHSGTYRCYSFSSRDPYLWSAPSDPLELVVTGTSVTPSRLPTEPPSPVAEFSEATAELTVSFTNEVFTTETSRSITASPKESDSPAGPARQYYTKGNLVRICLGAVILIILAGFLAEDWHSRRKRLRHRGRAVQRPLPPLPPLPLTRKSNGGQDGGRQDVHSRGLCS
UniProt Q9NPB8: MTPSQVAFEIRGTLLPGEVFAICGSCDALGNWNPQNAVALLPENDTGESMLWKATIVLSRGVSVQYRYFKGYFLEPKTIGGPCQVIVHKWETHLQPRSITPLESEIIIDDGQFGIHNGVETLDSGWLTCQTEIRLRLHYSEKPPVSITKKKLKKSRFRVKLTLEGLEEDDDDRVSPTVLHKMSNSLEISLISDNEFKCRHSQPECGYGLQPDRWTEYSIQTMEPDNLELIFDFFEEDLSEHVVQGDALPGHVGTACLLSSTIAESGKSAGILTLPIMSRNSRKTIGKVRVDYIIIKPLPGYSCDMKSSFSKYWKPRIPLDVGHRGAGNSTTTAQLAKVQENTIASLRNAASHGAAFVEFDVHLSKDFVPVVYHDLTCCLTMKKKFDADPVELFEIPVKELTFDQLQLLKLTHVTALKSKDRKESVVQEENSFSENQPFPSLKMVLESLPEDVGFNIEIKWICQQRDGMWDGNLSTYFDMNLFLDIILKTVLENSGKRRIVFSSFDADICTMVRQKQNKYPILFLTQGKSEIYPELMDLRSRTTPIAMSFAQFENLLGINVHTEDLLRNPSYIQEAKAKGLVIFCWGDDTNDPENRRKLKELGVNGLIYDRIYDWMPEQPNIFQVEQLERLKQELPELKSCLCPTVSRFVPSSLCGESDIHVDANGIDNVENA
UniProt Q86V85: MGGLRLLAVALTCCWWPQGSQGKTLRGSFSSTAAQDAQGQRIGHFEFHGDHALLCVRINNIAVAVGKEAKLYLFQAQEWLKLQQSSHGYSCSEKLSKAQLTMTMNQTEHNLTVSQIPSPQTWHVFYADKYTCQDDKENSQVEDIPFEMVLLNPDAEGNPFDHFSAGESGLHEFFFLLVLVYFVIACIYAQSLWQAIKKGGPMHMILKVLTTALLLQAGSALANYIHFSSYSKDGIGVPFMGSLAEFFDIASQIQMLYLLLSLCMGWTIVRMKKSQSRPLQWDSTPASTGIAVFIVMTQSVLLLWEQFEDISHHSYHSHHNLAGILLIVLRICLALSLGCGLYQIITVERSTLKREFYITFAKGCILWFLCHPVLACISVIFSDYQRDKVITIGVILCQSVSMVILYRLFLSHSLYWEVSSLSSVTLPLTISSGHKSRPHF
UniProt Q9BVP2: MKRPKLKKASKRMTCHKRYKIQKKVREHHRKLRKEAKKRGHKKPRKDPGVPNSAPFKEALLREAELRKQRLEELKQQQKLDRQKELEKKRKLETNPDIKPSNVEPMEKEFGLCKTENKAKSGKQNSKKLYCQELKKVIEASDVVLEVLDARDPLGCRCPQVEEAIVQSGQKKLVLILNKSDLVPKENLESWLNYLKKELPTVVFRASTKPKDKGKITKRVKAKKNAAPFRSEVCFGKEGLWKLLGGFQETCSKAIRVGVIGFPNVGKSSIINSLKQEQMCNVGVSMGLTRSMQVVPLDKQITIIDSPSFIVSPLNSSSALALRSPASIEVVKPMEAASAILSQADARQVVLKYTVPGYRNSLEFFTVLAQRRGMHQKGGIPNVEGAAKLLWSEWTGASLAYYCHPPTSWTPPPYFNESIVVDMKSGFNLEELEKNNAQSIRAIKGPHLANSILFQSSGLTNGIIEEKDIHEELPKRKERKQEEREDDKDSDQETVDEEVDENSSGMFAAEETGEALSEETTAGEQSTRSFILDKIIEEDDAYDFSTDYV
UniProt Q96CP6, whole entry, looked up: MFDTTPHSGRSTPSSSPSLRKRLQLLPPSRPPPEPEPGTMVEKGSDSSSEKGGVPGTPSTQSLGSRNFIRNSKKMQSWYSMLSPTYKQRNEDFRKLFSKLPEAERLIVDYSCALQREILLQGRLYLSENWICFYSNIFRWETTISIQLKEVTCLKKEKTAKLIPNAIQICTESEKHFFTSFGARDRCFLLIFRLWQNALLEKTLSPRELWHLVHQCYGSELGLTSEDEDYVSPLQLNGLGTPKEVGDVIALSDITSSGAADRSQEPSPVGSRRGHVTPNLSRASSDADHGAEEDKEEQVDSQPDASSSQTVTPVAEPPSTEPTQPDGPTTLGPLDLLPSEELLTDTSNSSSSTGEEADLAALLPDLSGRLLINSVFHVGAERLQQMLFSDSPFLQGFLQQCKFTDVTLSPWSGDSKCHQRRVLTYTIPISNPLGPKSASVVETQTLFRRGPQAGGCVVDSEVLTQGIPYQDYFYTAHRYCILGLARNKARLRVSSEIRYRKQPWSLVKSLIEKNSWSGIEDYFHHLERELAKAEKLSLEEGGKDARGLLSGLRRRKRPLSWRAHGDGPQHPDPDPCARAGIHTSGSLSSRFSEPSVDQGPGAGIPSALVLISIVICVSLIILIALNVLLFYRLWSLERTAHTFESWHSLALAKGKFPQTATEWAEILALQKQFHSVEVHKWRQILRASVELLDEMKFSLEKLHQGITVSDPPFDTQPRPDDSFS

[1] = compound: C1=CC(=C(C=C1Cl)C2=NC3=NC=CN=C3C(=N2)NC4=CC=NC=C4)F
Summary of the method: as §1

[2] = compound: C1=CC(=CC=C1C2=NC3=C(N2)C=C(C=C3)C(=O)N)OC4=CC=C(C=C4)Cl
Summary of the method: as §1

[3] = compound: C1=CC2=NC=CN=C2C=C1/C=C/3\C(=O)NC(=O)S3
Summary of the method: as §1

[4] = compound: C1=CC=C(C=C1)C2=NC(=C(N2)C3=CC=NC=C3)C4=CC(=C(C=C4)Cl)O
Summary of the method: as §1

[5] = compound: C1CCN(C1)C(=O)NC2=CC=CC(=C2)NC3=NC=C(C(=N3)NCCC4=CN=CN4)Br
Summary of the method: as §1

[6] = compound: C1CN(CCC1(CC2=CC=C(C=C2)Cl)N)C3=NC=NC4=C3C=CN4
Summary of the method: as §1

[7] = compound: C/C(=N\NC(=O)C1=CC(=CC=C1)S(=O)(=O)N2CCOCC2)/C3=C(C=CC(=C3)Cl)O
Summary of the method: as §1

[8] = compound: C1=CC2=C(C=CC(=C2)/C=C\3/C(=O)NC(=NCC4=CC=CS4)S3)N=C1
Summary of the method: as §1

[9] = compound: C1=CC=C2C(=C1)C3=NNC4=CC=CC(=C43)C2=O
Summary of the method: as §1

Measured: log2 fold change

GMIP (UniProt Q9P107)
inactive: erlotinib -0.029 | [1] 0.006 | [2] -0.002 | [3] 0.041 | [4] -0.123 | [5] -0.15 | [6] 0.012

GON4L (UniProt Q3T8J9)
inactive: [7] -0.216 | [1] 0.072 | [8] 0.221 | [3] 0.028 | [9] -0.035 | [5] -0.066 | [6] -0.042

GJA1 (UniProt P17302)
inactive: [3] -0.116

GORAB (UniProt Q5T7V8)
inactive: erlotinib 0.068 | [2] -0.122 | [3] 0.039 | [4] -0.092 | [5] 0.069 | [6] 0.028

GLS2 (UniProt Q9UI32)
inactive: [7] -0.082 | [8] -0.002 | [9] 0.057

GPSM3 (UniProt Q9Y4H4)
inactive: [7] -0.048 | [8] 0.118 | [9] 0.137

GINS2 (UniProt Q9Y248)
inactive: erlotinib 0.076 | [1] 0.083 | [2] -0.045 | [3] -0.008 | [4] 0.203 | [5] -0.089 | [6] -0.034

GPNMB (UniProt Q14956)
inactive: erlotinib 0.286 | [1] -0.281 | [2] -0.046

GPS2 (UniProt Q13227)
inactive: erlotinib -0.124 | [1] 0.066 | [2] -0.046 | [3] 0.05 | [4] -0.046 | [5] 0.262 | [6] 0.029

GLT8D1 (UniProt Q68CQ7)
inactive: [7] 0.012 | [8] 0.013 | [9] 0.231

GOLGA6B (UniProt A6NDN3)
inactive: erlotinib -0.069 | [1] -0.054 | [2] 0.116 | [3] 0.036

GPATCH1 (UniProt Q9BRR8)
inactive: erlotinib 0.053 | [1] -0.025 | [2] 0.185 | [5] 0.022 | [6] 0.13

GSDME (UniProt O60443)
inactive: erlotinib 0.09 | [1] 0.131 | [2] 0.042

GK5 (UniProt Q6ZS86)
inactive: [7] -0.316 | [1] -0.03 | [8] -0.184 | [3] 0.16 | [4] -0.089 | [9] -0.023 | [5] 0.132 | [6] 0.12

GPT2 (UniProt Q8TD30)
inactive: [7] 0.118 | [8] 0.279 | [4] -0.106 | [9] -0.077 | [5] -0.069 | [6] -0.128

GOLIM4 (UniProt F8W785)
inactive: [1] 0.007 | [3] -0.02 | [5] -0.078 | [6] 0.028

GLCE (UniProt O94923)
inactive: erlotinib -0.028 | [2] 0.002 | [3] -0.146

GOSR1 (UniProt E9PCW1)
inactive: erlotinib 0.018 | [2] 0.173 | [3] 0.092

GNL2 (UniProt Q13823)
inactive: [1] -0.457 | [3] -0.11 | [4] 0.016 | [5] 0.003 | [6] -0.092

Ten neighbouring entries out of the list so far, quoted:
GPS2 (UniProt Q13227)
inactive: erlotinib -0.124 | [1] 0.066 | [2] -0.046 | [3] 0.05 | [4] -0.046 | [5] 0.262 | [6] 0.029

GLT8D1 (UniProt Q68CQ7)
inactive: [7] 0.012 | [8] 0.013 | [9] 0.231

GOLGA6B (UniProt A6NDN3)
inactive: erlotinib -0.069 | [1] -0.054 | [2] 0.116 | [3] 0.036

GPATCH1 (UniProt Q9BRR8)
inactive: erlotinib 0.053 | [1] -0.025 | [2] 0.185 | [5] 0.022 | [6] 0.13

GSDME (UniProt O60443)
inactive: erlotinib 0.09 | [1] 0.131 | [2] 0.042

GK5 (UniProt Q6ZS86)
inactive: [7] -0.316 | [1] -0.03 | [8] -0.184 | [3] 0.16 | [4] -0.089 | [9] -0.023 | [5] 0.132 | [6] 0.12

GPT2 (UniProt Q8TD30)
inactive: [7] 0.118 | [8] 0.279 | [4] -0.106 | [9] -0.077 | [5] -0.069 | [6] -0.128

GOLIM4 (UniProt F8W785)
inactive: [1] 0.007 | [3] -0.02 | [5] -0.078 | [6] 0.028

GLCE (UniProt O94923)
inactive: erlotinib -0.028 | [2] 0.002 | [3] -0.146

GOSR1 (UniProt E9PCW1)
inactive: erlotinib 0.018 | [2] 0.173 | [3] 0.092

Additional results follow.

GINM1 (UniProt Q9NU53)
inactive: erlotinib -0.153 | [1] 0.073 | [2] 0.023 | [3] -0.02

GOLGA1 (UniProt Q92805)
inactive: erlotinib 0.086 | [7] 0.236 | [2] -0.106 | [8] 0.145 | [4] 0.062 | [9] 0.048

GIGYF1 (UniProt O75420)
inactive: [1] -0.052 | [4] -0.273

GORASP1 (UniProt Q9BQQ3)
inactive: [1] -0.264

GP6 isoform 3 (UniProt Q9HCN6)
inactive: erlotinib 0.112 | [2] 0.024 | [3] 0.204

GPCPD1 (UniProt Q9NPB8)
inactive: [1] 0.098 | [4] 0.211

GOLM1 (UniProt Q8NBJ4)
inactive: erlotinib -0.189 | [2] 0.181 | [3] -0.169 | [4] -0.067 | [5] 0.048 | [6] -0.158

GIT1 isoform 3 (UniProt Q9Y2X7)
inactive: [7] -0.086 | [1] -0.205 | [8] 0.233 | [4] -0.26 | [9] 0.03

GOLPH3L (UniProt Q9H4A5)
inactive: [7] -0.114 | [1] -0.191 | [8] 0.076 | [9] -0.196

GPR180 (UniProt Q86V85)
inactive: [7] 0.155 | [1] -0.094 | [8] 0.068 | [3] -0.34 | [9] -0.055 | [5] -0.014 | [6] -0.01

GPATCH2L (UniProt Q9NWQ4)
inactive: erlotinib 0.558 | [2] 0.033 | [5] -0.134 | [6] -0.338

GPATCH4 isoform 3 (UniProt Q5T3I0)
inactive: [1] -0.219 | [3] -0.223 | [4] 0.057 | [5] -0.13 | [6] -0.134

GNL3 (UniProt Q9BVP2)
inactive: [1] 0.165 | [8] 0.149 | [3] -0.054 | [9] 0.053 | [5] -0.048 | [6] 0.142
active: [7] -0.562

GRAMD1A (UniProt Q96CP6)
inactive: [1] -0.04 | [3] 0

GPS1 (UniProt A8K070)
inactive: erlotinib 0.084 | [2] 0.02 | [3] 0.057 | [4] -0.008

GPR68 (UniProt Q15743)
inactive: [7] 0.023 | [8] -0.048 | [4] -0.109 | [9] 0.047
